{"source": "PubChem BioAssay AID485298", "about": "(National Center for Advancing Translational Sciences (NCATS), 2010)", "note": "Hit rate of the full screen: of about 320,000 compounds, about 740 (0.23%) were called active. Inconclusive results, whose numbers are uncertain, are shown with a selection of clear calls. The call rests on the fitted dose curve; in most records, active means well fitted activation curve with a large enough effect; inconclusive means small, poorly fitted or top-dose-only effect; inactive means no such curve, though single readings can be large or run the other way. Potencies of inconclusive entries are doubtful fits and often do not repeat. A structure can be active in one record and inactive in another."}
{"assay": "qHTS Assay for Small Molecule Inhibitors of Mitochondrial Division or Activators of Mitochondrial Fusion; further: nearly all actives have a fitted effect of over 45% in size; further: potency means the concentration at half of the fitted maximal effect", "conditions": "S. cerevisiae fusion-defective mutant growth rescue, CellTiterGlo 48 h; series mostly up to 46.1 µM", "how_it_was_run": "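Growth-rescue viability read-out: after 48 h at the non-permissive 37C in glycerol/ethanol YPEG, yeast mitochondrial fusion mutants are measured by CellTiterGlo luminescence; compounds (23 nl pinned per well) restoring growth score as division inhibitors or fusion activators.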"}
{"molecule": "COC(=O)CNC(c1ccccc1)c1cc(Br)ccc1NC(=O)CCN1CCOCC1", "note": "(configuration not stated)", "Potency": "inconclusive: 25.1 µM [activator, single point]"}
{"molecule": "COc1ccc(S(=O)(=O)NCCSCc2cccc(C)c2)cc1Br", "Potency": "inactive"}
{"molecule": "CCOC(=O)C1(CC2CCCCO2)CCN(Cc2cc3ccccc3[nH]2)CC1", "note": "(configuration not stated)", "Potency": "inconclusive: 25.1 µM [activator, partial curve]"}
{"molecule": "O=C(/C=C/c1cccc([N+](=O)[O-])c1)NCCSCc1cccc(Cl)c1", "Potency": "inconclusive: 12.6 µM [activator, partial curve]"}
{"molecule": "COc1ccc(NS(=O)(=O)c2c(C)cc(C)cc2C)cn1", "Potency": "inconclusive: 15.8 µM [activator, partial curve]"}
{"molecule": "O=C(CSc1nccn(-c2ccc3c(c2)OCCO3)c1=O)Nc1ccccc1", "Potency": "inactive"}
{"molecule": "O=C(NCCn1cc(SCc2ccc(F)cc2)c2ccccc21)c1ccccc1F", "Potency": "inconclusive: 20 µM [activator, single point]"}
{"molecule": "Cc1ccc(S(=O)(=O)NC(N)=NCCc2ccccc2)cc1C", "Potency": "inconclusive: 35.5 µM [activator, partial curve]"}
{"molecule": "C=CCN(CC=C)C(=O)C1CCC(C(=O)N(CC=C)CC=C)CC1", "note": "(configuration not stated)", "Potency": "inactive"}
{"molecule": "CCCCCCCCCCC(C)(C)C(=O)Nc1c(OC)cc(OC)cc1OC", "Potency": "inconclusive: 23.1 µM [activator, single point]"}
{"molecule": "Cc1ccc(-c2cc3ncc(C#N)c(N)n3n2)cc1", "Potency": "inactive"}
{"molecule": "CC1CCCC(NC(=O)c2cc(-c3ccncc3)nc3ccccc23)C1C", "note": "(configuration not stated)", "Potency": "inconclusive: 35.5 µM [activator, single point]"}
{"molecule": "CCOC(=O)c1c(-c2ccc(C)cc2C)csc1NC(=O)CSc1nnnn1C", "Potency": "inconclusive: 14.1 µM [activator, partial curve]"}
{"molecule": "CCN(CC)S(=O)(=O)c1ccc(C(=O)Nc2nnc(C(C)C)s2)cc1", "Potency": "inactive"}
{"molecule": "O=C(CSCc1ccc(F)cc1)Nc1ccc(F)cc1", "Potency": "inactive"}
{"molecule": "CC(C)c1ccc(NC(=O)C2CCCCN2S(=O)(=O)c2ccccc2)cc1", "note": "(configuration not stated)", "Potency": "inconclusive: 12.6 µM [activator, single point]"}
{"molecule": "CC(Oc1ccc(Cl)cc1Cl)C(=O)NNC(=O)C(=O)N1CCCC1", "note": "(configuration not stated)", "Potency": "inconclusive: 35.5 µM [activator, partial curve, poor fit]"}
{"molecule": "CCc1cc(C(=O)COc2ccc(F)cc2)c(O)cc1O", "Potency": "inconclusive: 14.1 µM [activator, partial curve]"}
{"molecule": "Cc1ccc(-c2c(C)n([O-])c3c([n+]2=O)CCCC3)cc1", "Potency": "inconclusive: 4.47 µM [activator, single point]"}
{"molecule": "CSc1ccc(S(=O)(=O)NC2CCCCCC2)cc1", "Potency": "inconclusive: 35.5 µM [activator, single point]"}
{"molecule": "NC(=S)n1[nH]c(-c2ccc([N+](=O)[O-])cc2)c(N=Nc2cccc(Cl)c2)c1=O", "Potency": "inactive"}
{"molecule": "COCC(=O)N/N=C\\c1cccc(OC)c1OC/C=C/c1ccccc1", "Potency": "inactive"}
{"molecule": "Cc1cc([N+](=O)[O-])cc(C)c1OCC(=O)N/N=C/c1ccc(OC(=O)c2ccccc2)cc1", "Potency": "inconclusive: 35.5 µM [activator, single point]"}
{"molecule": "c1ccc(-n2nnc3cnccc32)cc1", "Potency": "inconclusive: 35.5 µM [activator, partial curve]"}
{"molecule": "Nc1ccccc1Nc1cc(-c2cccc(Cl)c2)nn1-c1ccccc1", "Potency": "inconclusive: 17.8 µM [activator, single point]"}
{"molecule": "CC1=C(C)C(=O)C(CCCCC#CCCCC#CCO)=C(C)C1=O", "Potency": "active: 18.4 µM"}
{"molecule": "COc1ccc2c(COC(=O)[C@@H]3CCCN3S(=O)(=O)c3ccc(Cl)cc3)cc(=O)oc2c1", "Potency": "inconclusive: 20 µM [activator, single point]"}
{"molecule": "C#C[C@]1(O)CC[C@H]2[C@@H]3CCc4cc(OC)ccc4[C@H]3CC[C@@]21C", "Potency": "inconclusive: 12.6 µM [activator, partial curve]"}
{"molecule": "O=C(O)CCCCCn1c(SCC(=O)c2ccc(O)c(O)c2)nc2ccsc2c1=O", "Potency": "inactive"}
{"molecule": "Cc1sc(NC(=O)Cn2c(=O)oc3ccccc32)nc1-c1ccc(Cl)cc1", "Potency": "inactive"}
{"molecule": "O=C(NC1=C(Nc2ccc(Cl)cc2)C(=O)c2ccccc2C1=O)c1ccccc1", "Potency": "inconclusive: 35.5 µM [activator, single point]"}
{"molecule": "CCOc1ccccc1C1CC(=O)Nc2cc(OC)c(OC)c(OC)c21", "note": "(configuration not stated)", "Potency": "inconclusive: 25.1 µM [activator, partial curve]"}
{"molecule": "OCCCNc1c2c(nc3cc(-c4ccc(Cl)cc4)nn13)CCC2", "Potency": "active: 14.1 µM"}
{"molecule": "COc1cc(C(=O)Nc2nc(-c3cccs3)cs2)cc(OC)c1OC", "Potency": "active: 14.1 µM"}
{"molecule": "O=C(c1ccc(Br)cc1)N1CCCC(c2nc(-c3cccs3)no2)C1", "note": "(configuration not stated)", "Potency": "inconclusive: 17.8 µM [activator, partial curve]"}
{"molecule": "C=CCNc1nc(N)c([N+](=O)[O-])c(NCc2ccccc2)n1", "Potency": "inconclusive: 3.55 µM [activator, partial curve]"}
{"molecule": "COc1ccc(C2CC(c3cccs3)=NN2C(=O)c2ccc(Br)o2)cc1", "note": "(configuration not stated)", "Potency": "active: 17.8 µM"}
{"molecule": "COc1cc(/C=N/NC(=O)c2cc(-c3ccccc3)nc3ccccc23)ccc1O", "Potency": "inactive"}
{"molecule": "CCOC(=O)C1CCN(C(=O)CN(c2ccc(Oc3ccccc3)cc2)S(C)(=O)=O)CC1", "Potency": "inconclusive: 12.6 µM [activator, partial curve]"}
{"molecule": "CCOC(=O)CNC(c1ccccc1)c1cc(Br)ccc1NC(=O)CCN1CCOCC1", "note": "(configuration not stated)", "Potency": "inconclusive: 7.08 µM [activator, full curve]"}
{"molecule": "CSc1ccc(C2=CC(=O)C[C@H](c3ccc(Cl)cc3)C2)cc1", "Potency": "inconclusive: 20 µM [activator, single point]"}
{"molecule": "CC(C)N(CCn1cnc2c([nH]c3ccccc32)c1=O)C(C)C", "Potency": "inactive"}
{"molecule": "COc1ccccc1-c1sc2cc3c(cc2c1C#CCO)OCO3", "Potency": "inconclusive: 22.4 µM [activator, single point]"}
{"molecule": "CCCCOc1[nH]c2nc(-c3ccco3)n(Cc3ccco3)c(=N)c2c1C#N", "Potency": "inconclusive: 15.8 µM [activator, single point]"}
{"molecule": "c1ccc2c(N3CCOCC3)nc(N3CCOCC3)nc2c1", "Potency": "inactive"}
{"molecule": "CC(Nc1nc(N2CCN(S(C)(=O)=O)CC2)nc2ccccc12)c1ccccc1", "note": "(configuration not stated)", "Potency": "inactive"}
{"molecule": "O=C1C=C(c2ccc(Oc3ccccc3)cc2)C[C@@H](c2ccc3c(c2)OCO3)C1", "Potency": "inconclusive: 28.2 µM [activator, single point]"}
{"molecule": "O=C(Sc1cccc2cccnc12)c1ccc(F)cc1", "Potency": "inconclusive: 12.6 µM [activator, partial curve]"}
{"molecule": "CC(=O)N1CCOc2cc(S(=O)(=O)Nc3cccc(C(F)(F)F)c3)c(Cl)cc21", "Potency": "inactive"}
{"molecule": "O=C(N/N=C/c1ccc(OC(=O)c2ccccc2)c([N+](=O)[O-])c1)c1ccc(O)cc1", "Potency": "inactive"}
{"molecule": "O=C(O)Cc1csc(NC(=O)CSc2nnnn2-c2ccc(O)cc2)n1", "Potency": "inconclusive: 31.6 µM [activator, single point]"}
{"molecule": "COc1ccc(-c2cc(C(F)F)n3ncc(C(=O)N4CCN(C(=O)c5ccco5)CC4)c3n2)cc1", "Potency": "inactive"}
{"molecule": "COc1cc(/C=C2\\SC(N3CCCCC3)=NC2=O)cc(OC)c1OC", "Potency": "active: 5.01 µM"}
{"molecule": "Clc1ccc(N/N=C/c2cccnc2)cc1", "Potency": "inconclusive: 7.94 µM [activator, partial curve]"}
{"molecule": "COC(=O)c1sccc1NC(=O)c1c(C)c(-c2cccc(Cl)c2)nc2ccccc12", "Potency": "inconclusive: 8.91 µM [activator, partial curve]"}
{"molecule": "CSc1nc2nc(C(F)(F)F)cc(-c3ccccc3)n2n1", "Potency": "inactive"}
{"molecule": "COc1ccccc1C(=O)NNC(=O)c1nn(Cc2ccccc2)c(=O)c2ccccc12", "Potency": "inactive"}
{"molecule": "O=C(Nc1ccc(F)cc1)c1cccc(N2C(=O)C3C4C=CC(C5CC45)C3C2=O)c1", "note": "(configuration not stated)", "Potency": "inactive"}
{"molecule": "FC(F)(F)c1cc(C(F)(F)F)c2ccc(N3CCN(c4ccc(Cl)cc4)CC3)nc2n1", "Potency": "inactive"}
{"molecule": "Fc1ccc2c(c1)C1C=CCC1C(c1cc3c(cc1Br)OCO3)N2", "note": "(configuration not stated)", "Potency": "inactive"}
{"molecule": "COc1cc(NC(=O)C2CCCN(S(=O)(=O)c3ccc4c(c3)CCCN4C(C)=O)C2)cc(OC)c1", "note": "(configuration not stated)", "Potency": "inactive"}
{"molecule": "CNC(=O)C1CC(=O)N(CCc2ccccc2)C(=Nc2ccc(OC)cc2)S1", "note": "(configuration not stated)", "Potency": "inconclusive: 35.5 µM [activator, single point]"}
{"molecule": "Cc1ccc(-n2cccc2C(=S)N=P(N(C)C)(N(C)C)N(C)C)cc1", "Potency": "inactive"}
{"molecule": "CC(C)(C)C(=O)O/N=C(\\N)c1c(Cl)cccc1Cl", "Potency": "inactive"}
{"molecule": "O=C(O/N=C1\\CCCc2ccccc21)c1cccs1", "Potency": "inactive"}
{"molecule": "Cc1ccc(/C=N/n2c(-c3ccncc3)n[nH]c2=S)cc1", "Potency": "inconclusive: 17.8 µM [activator, single point]"}
{"molecule": "CC1CCN(c2nc(Cl)nc(Nc3ccc([N+](=O)[O-])cc3)n2)CC1", "Potency": "inconclusive: 6.31 µM [activator, single point]"}
{"molecule": "Nc1c(S(=O)(=O)O)cc(Nc2ccc(Nc3nc(Cl)nc(Nc4ccc(S(=O)(=O)O)cc4)n3)c(S(=O)(=O)O)c2)c2c1C(=O)c1ccccc1C2=O", "Potency": "inconclusive: 9.2 µM [activator, partial curve]"}
{"molecule": "CC(=O)Nc1ccc2c(c1)N(C(C)=O)c1ccccc1CC2", "Potency": "inconclusive: 14.1 µM [activator, single point]"}
{"molecule": "O=C(CNC(=O)c1cccc(OC(F)F)c1)Nc1ccc(Cl)cc1", "Potency": "inconclusive: 3.98 µM [activator, single point]"}
{"molecule": "COc1ccc(Cl)cc1NC(=O)CN(C)C(C)C(=O)NC(=O)NC1CCCCC1", "note": "(configuration not stated)", "Potency": "inconclusive: 14.1 µM [activator, single point]"}
{"molecule": "Cc1cc2cc(CN(CC3CCCO3)C(=S)Nc3ccccc3)c(=O)[nH]c2cc1C", "note": "(configuration not stated)", "Potency": "inconclusive: 31.6 µM [activator, single point]"}
